PubChem BioAssay AID1259308 – NCATS | 2017
Shown is a random part of about 59,000 reagents tested. Of all reagents, about 1,510 (2.6%) were called active. 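Calls use total luciferase alone and ignore viability, so some active siRNAs may act by altering cell number.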 Unmarked entries are inactive. Further read-outs or replicates are left out here.

Assay: 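Genes whose loss raises luciferase production in HEK293 cells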 (primary screen)
System: human HEK293 embryonic kidney cells stably expressing firefly luciferase (HEK-CMV-Luc2-Hygro)
Reagents: single siRNA against human genes, 0.8 pmol siRNA per well
Timing: 72 h
Detection: 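Reporter luminescence and viable-cell signal on separate replicate plates, given as percent of non-targeting control and median/MAD z-scores, plus per-cell luciferase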
Direction: total luciferase, z-score and total luciferase, % of control: higher = more reporter protein produced
Active means: 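An siRNA counts as active if its total luciferase robust z-score exceeds 3; genes with two or more such siRNAs out of three were retested with fresh siRNAs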
Calls: active = raised luciferase; inactive = no rise

After knock-down of LRCH2 [SID160746455], the record shows total luciferase, z-score 0.165; total luciferase, % of control 85.2.
After knock-down of LRCH2 [SID160746456], the record shows total luciferase, z-score -0.316; total luciferase, % of control 75.6.
Knock-down of LRCH2 [SID160746457] came out at: total luciferase, z-score 0.105; total luciferase, % of control 84.
CRYZL1 [SID160723513] gave total luciferase, z-score 0.206; total luciferase, % of control 86.
For CRYZL1 [SID160723514] the deposit lists total luciferase, z-score 2.15; total luciferase, % of control 125.
Silencing of CRYZL1 [SID160723516] gave: total luciferase, z-score 2.44; total luciferase, % of control 130.
With knock-down of STYXL1 [SID160741168], the screen gave total luciferase, z-score 2.22; total luciferase, % of control 126.
With knock-down of STYXL1 [SID160741169], the record shows total luciferase, z-score -0.658; total luciferase, % of control 68.8.
STYXL1 [SID160741170] showed total luciferase, z-score -0.405; total luciferase, % of control 73.8.
Depletion of SKAP2 [SID160721169] resulted in: total luciferase, z-score -0.451; total luciferase, % of control 72.9.
With knock-down of SKAP2 [SID160721170], the record shows total luciferase, z-score 0.18; total luciferase, % of control 85.5.
Silencing of SKAP2 [SID160721171] resulted in: total luciferase, z-score -0.439; total luciferase, % of control 73.2.
With knock-down of AADACL3 [SID160756532], the screen gave total luciferase, z-score -0.651; total luciferase, % of control 68.9.
AADACL3 [SID160756533] showed total luciferase, z-score 4.67 (active); total luciferase, % of control 175.
Depletion of AADACL3 [SID160756534] resulted in: total luciferase, z-score 2.52; total luciferase, % of control 132.

An excerpt from the list above, as a working copy:
SKAP2 [SID160721171]: total luciferase, z-score = -0.439; total luciferase, % of control = 73.2
AADACL3 [SID160756532]: total luciferase, z-score = -0.651; total luciferase, % of control = 68.9

Additional reagents:
GRK1 [SID160715902] showed total luciferase, z-score -0.757; total luciferase, % of control 66.8.
For GRK1 [SID160715903] the deposit lists total luciferase, z-score -0.0943; total luciferase, % of control 80.
GRK1 [SID160715904] gave total luciferase, z-score 1.45; total luciferase, % of control 111.
TNFRSF1B [SID160718207] showed total luciferase, z-score -0.381; total luciferase, % of control 74.3.
Depletion of TNFRSF1B [SID160718208] gave: total luciferase, z-score 0.549; total luciferase, % of control 92.8.
Against TNFRSF1B [SID160718210] the deposit lists total luciferase, z-score 0.93; total luciferase, % of control 100.
For ENC1 [SID160720192], the entry reads total luciferase, z-score -0.386; total luciferase, % of control 74.2.
Knock-down of ENC1 [SID160720193] resulted in: total luciferase, z-score -0.161; total luciferase, % of control 78.7.
ENC1 [SID160720194] gave total luciferase, z-score -0.169; total luciferase, % of control 78.5.
Silencing of RPUSD1 [SID160754779] gave: total luciferase, z-score -0.306; total luciferase, % of control 75.8.
RPUSD1 [SID160754780] scored total luciferase, z-score -1.83; total luciferase, % of control 45.4.
With knock-down of RPUSD1 [SID160754781], the record shows total luciferase, z-score 0.402; total luciferase, % of control 89.9.
After knock-down of BACH2 [SID160747070], the record shows total luciferase, z-score 1.08; total luciferase, % of control 103.
For BACH2 [SID160747071], the values are total luciferase, z-score 1.29; total luciferase, % of control 108.
Against BACH2 [SID160747072], the values are total luciferase, z-score 0.658; total luciferase, % of control 95.
POU2F3-AS1 [SID160770373] scored total luciferase, z-score -0.274; total luciferase, % of control 76.4.
Against POU2F3-AS1 [SID160770374], the values are total luciferase, z-score 0.0804; total luciferase, % of control 83.5.
POU2F3-AS1 [SID160770375] gave total luciferase, z-score -0.895; total luciferase, % of control 64.1.
